# Assay results published in article PMC7819943, “Rice protein-binding microarrays: a tool to detect cis-acting elements near promoter regions in rice”.
# The chains behind the UniProt entries cited, without tags or fusion partners.
# UniProt Q0JBA9, entry or part of it: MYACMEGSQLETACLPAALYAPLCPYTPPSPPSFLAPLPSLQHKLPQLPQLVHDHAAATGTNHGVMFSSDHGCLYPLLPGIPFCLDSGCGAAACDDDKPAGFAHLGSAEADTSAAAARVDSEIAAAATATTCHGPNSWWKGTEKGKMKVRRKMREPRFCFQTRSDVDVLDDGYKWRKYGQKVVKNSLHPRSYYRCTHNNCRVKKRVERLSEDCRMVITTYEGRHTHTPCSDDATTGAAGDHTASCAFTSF
# The list shows a part of the results.
# Target: OsWRKY34 (Oryza sativa, UniProt Q0JBA9 1-250)
# Assay: protein-binding microarray (RPBM); PBS, 2% BSA, 51.3 ng/ul salmon testes DNA, 50 uM zinc acetate, 200 nM TF, 25 C, 1 h; high values mean tight binding
# Conditions: protein: recombinant; tags: N-terminal polyhistidine and DsRed monomer fusion (pET32a); label: CyDye5-dUTP incorporated in the synthesized complementary strand; 3' TTTTT single-stranded linker to array surface; dsDNA, one strand shown
# Procedure, shortened: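 Binding signal is defined as the fluorescence intensity of each feature in arbitrary units, read on an Axon 4000B scanner. Transcription factors with N-terminal polyhistidine and DsRed fusions came from E. coli BL21-CodonPlus and were purified on Ni–NTA. They were incubated at 200 nM for 1 h at 25 °C on a custom Agilent array that had been made double-stranded with Cy5-dUTP, with 50 µM zinc acetate present, and the array was washed.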
row,Sequence,binding signal
1,GATTGATTATCCTTTTCTTAAACTATTTTCCTGTTTTTCACGGAGTCACCTAGTGCAG,13200 fluorescence intensity (a.u.)
2,ATTGGTAGTATCGAGAGTCAATTTGTACTGTTCCATTTTTCGGAGTCACCTAGTGCAG,9230 fluorescence intensity (a.u.)
3,ATCAATCAATTTTTCGGCGTCCTAATTACCTGCAGGAACACGGAGTCACCTAGTGCAG,8900 fluorescence intensity (a.u.)
4,CCTTCTCGGGCCTCGGTTTGCTCAGATCCACCGCGTCGCGCGGAGTCACCTAGTGCAG,10700 fluorescence intensity (a.u.)
5,TTCCATCGATCCCTTATCCTGTTTAAACCTTCTAGAATCTCGGAGTCACCTAGTGCAG,9580 fluorescence intensity (a.u.)
6,CTCCCTATCGGCGGCCGTTACCACTGCCTGTCGCTGCCATCGGAGTCACCTAGTGCAG,12600 fluorescence intensity (a.u.)
7,GCCGCCGCCGCCGCAGCAGCCGCCACCGCCGCCGGAATCCCGGAGTCACCTAGTGCAG,8080 fluorescence intensity (a.u.)
8,TCGGTGGATTCGCGTCGTTGGGTTTGGCCGCTGGGAGCGGCGGAGTCACCTAGTGCAG,8100 fluorescence intensity (a.u.)
9,TACCACGTTGTCCGGTATTTCCATCTTCGTTTCCTTCCTACGGAGTCACCTAGTGCAG,11800 fluorescence intensity (a.u.)
10,AGGTGGTCGGGCGCCAGTTGGAGGGGTGGCCGGTGGCGCTCGGAGTCACCTAGTGCAG,8090 fluorescence intensity (a.u.)
11,TTTTTTTTGACTTTTTCGGTGTATTTTTCGATAAGGGGACCGGAGTCACCTAGTGCAG,8940 fluorescence intensity (a.u.)
12,GCCGCCGCCGCCGCACCCGCCGATCTCCATCCTGCGAGCACGGAGTCACCTAGTGCAG,8300 fluorescence intensity (a.u.)
13,TAGTGTTTGTCTGCTTTTTTCTTCTTTTGGTCTAGCAATTCGGAGTCACCTAGTGCAG,9100 fluorescence intensity (a.u.)
14,CTTCCCCGCCCCGCCACCTCTCATCTCATCCGCGCCGCCGCGGAGTCACCTAGTGCAG,9730 fluorescence intensity (a.u.)
15,GGGCTCATTGTGTTGCAATAACTGGTATACTACTAGTTGACGGAGTCACCTAGTGCAG,8480 fluorescence intensity (a.u.)
16,AGGGTTTTGGCCTGTGTGTGTGGGGATTTGGCTGGCCAAGCGGAGTCACCTAGTGCAG,13500 fluorescence intensity (a.u.)
17,AGATATTCTCCTATGCATATCCATCCCCTTGGGTTCCTACCGGAGTCACCTAGTGCAG,8240 fluorescence intensity (a.u.)
18,TATCCGCACCACGCCACGCCACGACACCGAAACCGACTTCCGGAGTCACCTAGTGCAG,8870 fluorescence intensity (a.u.)
19,CTTCACCTATTGCTGTTCTTCAAATTGTCCTTACCTGATTCGGAGTCACCTAGTGCAG,12200 fluorescence intensity (a.u.)
20,GCGGACGGTGGAGAGGGAGGGTGGAGTGAGAGTGGAGATCCGGAGTCACCTAGTGCAG,8480 fluorescence intensity (a.u.)
21,CGGCGGAATTTTTTTTCTTTTTGGTCTCCCTGTTCCATCTCGGAGTCACCTAGTGCAG,8280 fluorescence intensity (a.u.)

row,Sequence,binding signal
1,TTCCAGTGTTGATAGGTTAGTCACGGTTTATTAGTAGAGTCGGAGTCACCTAGTGCAG,9340 fluorescence intensity (a.u.)
2,CTTGTACTAGCTAGATGCCTTTCAGTACTGCATATGTTATCGGAGTCACCTAGTGCAG,8480 fluorescence intensity (a.u.)
3,AACCTACTAGCTAGCTTAGTGTACTCTGTGTACTGTATATCGGAGTCACCTAGTGCAG,8190 fluorescence intensity (a.u.)
4,ATATATATATATATATATATATATATATATATAAACCCAACGGAGTCACCTAGTGCAG,11400 fluorescence intensity (a.u.)
5,GCATGTCCAGTTCGTCTAAAGCTTTCTCAAACATATCTAACGGAGTCACCTAGTGCAG,8420 fluorescence intensity (a.u.)
6,TGTTAAGATATTAGGGGTAGTTTAGTATTTTCGTATCACTCGGAGTCACCTAGTGCAG,8740 fluorescence intensity (a.u.)
7,AGACCCTTGCATTCAGAGACATATCACCCCAAGCTCCAGTCGGAGTCACCTAGTGCAG,8800 fluorescence intensity (a.u.)
8,CCAGTTTTGTTGTGTGTCACTGCTGTTTTGTTTCATGAAACGGAGTCACCTAGTGCAG,10800 fluorescence intensity (a.u.)
9,TTCCATGCTTGATGTGTGAGTGATGTGGCCATAAATTAGACGGAGTCACCTAGTGCAG,8990 fluorescence intensity (a.u.)
10,GTAATTTAACTCTCTCAGCGGTTTTAGTGGGTTGTTTCGTCGGAGTCACCTAGTGCAG,8880 fluorescence intensity (a.u.)
11,GGGGCCCACTTCGGTGGCCCCGCCCGCGGTATTTATTTTTCGGAGTCACCTAGTGCAG,8380 fluorescence intensity (a.u.)
12,GTCGGCCACCTAAAGGTTTTTTTTTTCCTTTTTTTTTCTTCGGAGTCACCTAGTGCAG,8900 fluorescence intensity (a.u.)
13,TCGCTCTTTCGGGTTGGGTGCTGGATTCCATCTTGTATGCCGGAGTCACCTAGTGCAG,13300 fluorescence intensity (a.u.)
14,TATGTAGTCCACAGCTCTCCTCTTTCTTCCTTTATCTCTTCGGAGTCACCTAGTGCAG,9200 fluorescence intensity (a.u.)
15,AAGTGCAGTTTTGTATTATTCACGTTCAACGTTTGACCACCGGAGTCACCTAGTGCAG,9470 fluorescence intensity (a.u.)
16,TCTATACTCTACTTCCAATATTCCTTATTTTTTTAATTCCCGGAGTCACCTAGTGCAG,8900 fluorescence intensity (a.u.)
17,TGCACCACTGCTGCCGTTATCGCTTCCCGCACCTGACAAGCGGAGTCACCTAGTGCAG,8100 fluorescence intensity (a.u.)
18,GCCCCATCAGCTTGCGGCAGTGCGTCGTCGACGATAAAGGCGGAGTCACCTAGTGCAG,8220 fluorescence intensity (a.u.)
19,CTCTAAATTTGTTCGTCCGTGTCGTCCAGGTCACCAAACTCGGAGTCACCTAGTGCAG,9420 fluorescence intensity (a.u.)
20,CCTTTGGCCACTGCTTTGCTCTTTTGACACAACATACTCACGGAGTCACCTAGTGCAG,9680 fluorescence intensity (a.u.)
21,CTCCTCCGTTGACCGCCACCGTTGACCTCCCCGCCGGCGACGGAGTCACCTAGTGCAG,16300 fluorescence intensity (a.u.)

# Retrieved one by one from the list above (3):
row,Sequence,binding signal
2,CTTGTACTAGCTAGATGCCTTTCAGTACTGCATATGTTATCGGAGTCACCTAGTGCAG,8480 fluorescence intensity (a.u.)
14,TATGTAGTCCACAGCTCTCCTCTTTCTTCCTTTATCTCTTCGGAGTCACCTAGTGCAG,9200 fluorescence intensity (a.u.)
13,TCGCTCTTTCGGGTTGGGTGCTGGATTCCATCTTGTATGCCGGAGTCACCTAGTGCAG,13300 fluorescence intensity (a.u.)

# (list continues)

row,Sequence,binding signal
1,TTGGTGAGGGTTTGGGTTTGGTGGTGGAGTGGAGTGGAGTCGGAGTCACCTAGTGCAG,10700 fluorescence intensity (a.u.)
2,ACAGCCCATACCTTACCATGCATCTGCATGCAGCAGCAGACGGAGTCACCTAGTGCAG,8260 fluorescence intensity (a.u.)
3,GCGTCGCCTGCCGCCTCCGCTTCCGCTCCACTCCGCTTCGCGGAGTCACCTAGTGCAG,12000 fluorescence intensity (a.u.)
4,TCGCTGCCCATCACTTCGCCATCCTCGCCGACGCCGACGCCGGAGTCACCTAGTGCAG,8630 fluorescence intensity (a.u.)
5,TTCCGTTACCCTTTTGCCTCGTACTGGCACCTATATAGCCCGGAGTCACCTAGTGCAG,8930 fluorescence intensity (a.u.)
6,CTCTCTCTGTTTTCTCTCCTCCCTTCCTTCCTGTCGCTCTCGGAGTCACCTAGTGCAG,9060 fluorescence intensity (a.u.)
7,TCTTTTGTACCCTTATCAGTATTCAGGCTATGCTGTAATGCGGAGTCACCTAGTGCAG,8490 fluorescence intensity (a.u.)
8,CTCCATCCTAAAATGTTTGACGCCGTTGACTTTTTTAAATCGGAGTCACCTAGTGCAG,24500 fluorescence intensity (a.u.)
9,TCTCTCTCTCTCTCTCCATCGCTCTCACTTTCTCTCTCCTCGGAGTCACCTAGTGCAG,10300 fluorescence intensity (a.u.)
10,ATCTCCATCTTCATCTTCAATATTCAAACACCACCGTAGTCGGAGTCACCTAGTGCAG,9790 fluorescence intensity (a.u.)
11,GTAGTCATCCATGATCCATGCTTGTACGTGTGCTAGTGCTCGGAGTCACCTAGTGCAG,8430 fluorescence intensity (a.u.)
12,TTGGCTTGTAGTAGTTGCATTTTTTTACCAGTTTTCGTTTCGGAGTCACCTAGTGCAG,14800 fluorescence intensity (a.u.)
13,GTCACTTGGCGCCTCTTTCACCTCTCGCATGGCCGCCAAACGGAGTCACCTAGTGCAG,8610 fluorescence intensity (a.u.)
14,CTTTATATTTACGGGGTGTGGATGATGCTTTTGACGTGTGCGGAGTCACCTAGTGCAG,8930 fluorescence intensity (a.u.)
15,TTGTATTCTTCCAAGTTACTTGCATGTCTGAAACAATTTACGGAGTCACCTAGTGCAG,9920 fluorescence intensity (a.u.)
16,CCCCATCATTTCTTGCTTCCTCAGCTGCTTCTTCCTCCTTCGGAGTCACCTAGTGCAG,11900 fluorescence intensity (a.u.)
17,CTCTCTCTCTCTCTTCACGCTTCCCACGCGCGACACGAGGCGGAGTCACCTAGTGCAG,8240 fluorescence intensity (a.u.)
18,GTCTTTTTTGCTGTTGGGTCCCTTGAAGAGTTTGTATTTACGGAGTCACCTAGTGCAG,9300 fluorescence intensity (a.u.)
19,CCATCGAAGTTTCAAATTTTACTGTTCTATGTGTTCATTCCGGAGTCACCTAGTGCAG,9980 fluorescence intensity (a.u.)
20,ATGTACTCCCTCCGTTTCAAAATGTTTGACACCGTTGACTCGGAGTCACCTAGTGCAG,12300 fluorescence intensity (a.u.)
21,TGGTTTATTGTATCATCTCGGTCTAAAGCTGCGTTTGACCCGGAGTCACCTAGTGCAG,8860 fluorescence intensity (a.u.)

row,Sequence,binding signal
1,CATGCAGAAGTTGTGTTATTCTTTTTTGGGTGATTTTTTTCGGAGTCACCTAGTGCAG,8820 fluorescence intensity (a.u.)
2,GCATTGTAGCTAGGGGCCTATTGTAGACCTTATGAGTTTTCGGAGTCACCTAGTGCAG,8830 fluorescence intensity (a.u.)
3,TATGGGCCATCTATTTATTTGTCAAGTGTCTGGCTTTTTCCGGAGTCACCTAGTGCAG,11300 fluorescence intensity (a.u.)
4,GTAAAACTTCGCCACCGCTAATCGATTAACTTCGCCACCGCGGAGTCACCTAGTGCAG,9080 fluorescence intensity (a.u.)
5,AACCGCTCGCCTTAAATTCTCCAAACCGAAAACCATTTCCCGGAGTCACCTAGTGCAG,8890 fluorescence intensity (a.u.)
6,ACTGGTATTTGTCTGGCTCAAATCCTTTATCCAGTAATCTCGGAGTCACCTAGTGCAG,8960 fluorescence intensity (a.u.)
7,ACTTTTCTGTTTGTGTTTTCTGCGGTTTAAAAGTTAGTGTCGGAGTCACCTAGTGCAG,12700 fluorescence intensity (a.u.)
8,ATGGTCTCAGTTTTTTTTTGCTAGTGAACAGGAGGTTGTTCGGAGTCACCTAGTGCAG,8680 fluorescence intensity (a.u.)
9,AAAACCCTAGCTCTAGCCCATTCCGCCGCCCTCTCGCTCTCGGAGTCACCTAGTGCAG,8250 fluorescence intensity (a.u.)
10,AACCCATGTCATCAATGTTGAGCTGTCCCGTGATTTGTTCCGGAGTCACCTAGTGCAG,10000 fluorescence intensity (a.u.)
11,GCGTAACCACCTTTCTTCCATTAATTTTGACAATTTGACCCGGAGTCACCTAGTGCAG,9060 fluorescence intensity (a.u.)
12,CACCCTCCTCCACATCGCCGCTGGTCGTCGCTGCTCCGCGCGGAGTCACCTAGTGCAG,8280 fluorescence intensity (a.u.)
13,CGATCTCAGCTGTCACTCACTATGTGGTTCATCTAACTGACGGAGTCACCTAGTGCAG,9510 fluorescence intensity (a.u.)
14,AGAAATGGGGTTACTTACCATTCAACGCCGCTCTCACTCTCGGAGTCACCTAGTGCAG,8760 fluorescence intensity (a.u.)
15,CACACACGAGACAATGGGGTAATTCTTTGTTTTAGATTCACGGAGTCACCTAGTGCAG,8630 fluorescence intensity (a.u.)
16,TCTTTCATTGAAACCTTTCGCTATATATTTCTAGTCATTTCGGAGTCACCTAGTGCAG,9220 fluorescence intensity (a.u.)
17,ATCTTTACTAAACTTCGACTGGCTTTACGCCGGTCCCAGACGGAGTCACCTAGTGCAG,8480 fluorescence intensity (a.u.)
18,GCACGATCCATCCATCCACGCCACGCTGAATACTTCGCTCCGGAGTCACCTAGTGCAG,8700 fluorescence intensity (a.u.)
19,TGTGGCTGTCCGATTTGAGGGCATTTGTTTCCGTCTTTTTCGGAGTCACCTAGTGCAG,9790 fluorescence intensity (a.u.)
20,CCCTCGCCTGCTCCGGTCGCCGCCGCTTTGCCGGCCTACTCGGAGTCACCTAGTGCAG,8230 fluorescence intensity (a.u.)
21,ACCTCGCCGCGTCGGCTGCTCCGAATGGTGGTCGGTCTCCCGGAGTCACCTAGTGCAG,8660 fluorescence intensity (a.u.)
